Measured values from US9187397B2 (STC.UNM, priority 2004, dated 2015).
At least one compound was matched to its structure with a doubt left.

Key:
[1] = Light scattering assay for aggregation in aqueous environment; type: physicochemical; settings: 1.0-20.0 μM in 0.1 M phosphate buffered saline, pH 7.0, absorbance 425 nm
amyloid plaque burden = settings: dietary curcumin, in vivo (Yang, et al.); cited from earlier work

In the case of `COc1cc(/C=C/C(=O)/C=C(O)/C=C/c2ccc(O)c(OC)c2)ccc1O` [analog 3a, 1,7-Bis(4-hydroxy-3-methoxyphenyl)-1,6-heptadiene-3,5-dione], the “aggregation in an aqueous environment” value ([1]; listed as Curcumin) is given as “no evidence of aggregation”, the “aggregation in an aqueous environment” value ([1]; listed as curcumin) is given as “does not aggregate” and the “reduction in hippocampal plaque burden” value (amyloid plaque burden) is given as 32.5%.
